# Data from US11254700B2, “GSK-3β inhibitors and use thereof in methods of treatment” (UNIVERSITY OF HAWAII, priority 2017, dated 2022).
# Conditions: PAMPA, 5 h, 20 μM, pH 7.4
# Experimental: Samples were run in quadruplicate.
# Oral administration is noninvasive and is preferred for chronical diseases such as Alzheimer's disease and other CNS disorders. […] In the PAMPA model, the amount of target compounds diffused from a donor compartment to an acceptor compartment through a tri-layer phospholipid pre-coated membrane are measured to assess oral-absorption potential of drug candidates. In the present study, 1, 4, 9, 17, 21 and 30 were evaluated with the PAMPA assay.
smiles,measurement,value
"CC(C)NCC(O)COc1ccc(CC(N)=O)cc1 (stereo not shown) [Atenolol, reference compound]",R (percent recovery),40%
